Data taken from patent US20180086836A1.

Columns and labels:
[1] = biological target: cynomologus monkey CCR6 (cynomolgus monkey); assay: flow cytometry on cynomolgus monkey PBMCs, 10 µg/mL
[2] = biological target: mmCCR6 block1 hsCCR6 (human/mouse hybrid); assay: flow cytometry on transiently transfected CHO cells
[3] = biological target: mmCCR6 block1 hsCCR6 (human/mouse hybrid); assay: flow cytometry on transiently transfected CHO cells, 10 µg/ml, anti-human IgG-PE
[4] = biological target: cynomologus monkey CCR6 (cynomolgus monkey); assay: flow cytometry on cynomolgus monkey PBMCs, 10 µg/mL, anti-human IgG-PE

Measured: binding

B1: chimeric 4H11 antibody (antibody, human IgG1, kappa, V domains shown)
VH: EVKLVESGGGLVQPGGSLKLSCATSGFSFSDYYMYWIRQTPEKRLEWVAYITNGGITYYPDTVKGRFTISRDNAKNTLYLQMSRLRSEDTAMYYCTSPLRGAWFAYWGQGTLVTVSS
VL: DVIMTQSPLSLPVSLGDQASISCRSSQSIVHSNGNTYLEWYLQKPGQSPKLLIYKVSNRFSGVPDRFSGSGSGTDFTLKISRVEAEDLGLYYCFQGSHVPLTFGAGTKLEIKR
binds: all assays above

No constants are given. Whether binding was seen depends on the method and setting. Binding can be weak; no strength is given.
